Reference: paper PMC4106346, “The Oligomeric States of the Purified Sigma-1 Receptor Are Stabilized by Ligands” (The Journal of Biological Chemistry, 2014)
Results are given in words; binding and its absence hold for the method and conditions named.

Amino acid sequences for entries named in this document (tags omitted). A change or cut given only in a name is not applied to a line headed by its entry.
UniProt Q60492: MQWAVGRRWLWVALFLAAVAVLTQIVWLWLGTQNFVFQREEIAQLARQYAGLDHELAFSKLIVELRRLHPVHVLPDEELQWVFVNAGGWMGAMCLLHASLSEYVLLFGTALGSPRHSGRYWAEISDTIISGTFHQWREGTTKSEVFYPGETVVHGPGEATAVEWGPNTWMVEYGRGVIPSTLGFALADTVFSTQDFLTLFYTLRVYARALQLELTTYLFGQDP

Legend:
[1] = biological target: MBP-4A-S1R (guinea pig sigma-1 receptor fused to maltose-binding protein through a 4-Ala linker) (guinea pig) (UniProt Q60492); assay: condition: only the isolated peak 2 (monomer) fraction; SEC-MALS; isolated peak 2 (monomer) of MBP-4A-S1R; Superdex S200, 150 mM NaCl, 5 mM HEPES pH 7.2, 0.018% DDM; both purified
[2] = biological target: MBP-4A-S1R (guinea pig sigma-1 receptor fused to maltose-binding protein through a 4-Ala linker) (guinea pig) (UniProt Q60492); assay: condition: only the isolated peak 2 (monomer) fraction, 5 μM; cross-linking; DSS (150 or 250 μM) on 5 μM isolated peak 2 (monomer) of MBP-4A-S1R, 2 h at room temperature, with or without 10 μM BD-1047; SDS-PAGE; both purified

For “MBP-4A-S1R (guinea pig sigma-1 receptor fused to maltose-binding protein through a 4-Ala linker) (from UniProt Q60492 1-223)”, the binding [1] was “no binding” and the binding [2] was “no binding”.
